According to paper PMC12649893:
No constants are given. Whether binding was seen depends on the method and setting.

Amino acid sequences for entries named in this document (tags omitted). A change or cut given only in a name is not applied to a line headed by its entry. Chains listed by the source or under a name are the forms on record and can include a tag or linker. Residues count along the entry.
Receptor FcγRIIIa-176V extracellular domain (P08637, form named): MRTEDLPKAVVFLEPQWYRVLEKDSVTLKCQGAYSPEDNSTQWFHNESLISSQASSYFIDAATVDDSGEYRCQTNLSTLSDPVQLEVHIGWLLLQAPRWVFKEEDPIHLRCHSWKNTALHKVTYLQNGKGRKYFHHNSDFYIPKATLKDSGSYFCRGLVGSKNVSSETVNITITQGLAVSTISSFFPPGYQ
UniProt P12314, residues 16-292: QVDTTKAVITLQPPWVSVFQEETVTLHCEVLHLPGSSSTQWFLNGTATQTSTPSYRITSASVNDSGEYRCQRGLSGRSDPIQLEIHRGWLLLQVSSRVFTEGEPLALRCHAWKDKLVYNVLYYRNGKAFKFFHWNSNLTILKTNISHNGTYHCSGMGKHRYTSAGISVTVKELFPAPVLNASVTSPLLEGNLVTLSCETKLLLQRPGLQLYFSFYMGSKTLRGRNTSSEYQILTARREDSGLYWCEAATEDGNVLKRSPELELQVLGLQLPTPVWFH

Tests used:
[1] = target: Receptor FcγRIIIa-176V extracellular domain (UniProt P08637); test: BLI; controls for non-specific interactions: antigens on sensors loaded with Fc receptors without antibodies; both purified
[2] = target: Receptor FcγRIa extracellular domain (UniProt P12314); test: as above

binding [1]: no binding | binding [2]: no binding
B1: Triggering receptor expressed on myeloid cells 2 (TREM-2) extracellular fragment (domain or fragment, UniProt Q9NZC2-1 19-174)
chain: HNTTVFQGVAGQSLQVSCPYDSMKHWGRRKAWCRQLGEKGPCQRVVSTHNLWLLSFLRRWNGSTAITDDTLGGTLTITLRNLQPHDAGLYQCQSLHGSEADTLRKVLVEVLADPLDHRDAGDLWFPGESESFEDAHVEHSISRSLLEGEIPFPPTS
